Here are results for 54 compounds from PubChem BioAssay AID1487 (National Center for Advancing Translational Sciences (NCATS), 2009).

A short description of this assay: qHTS Assay for Modulators of Lamin A Splicing. The conditions noted are these: HeLa LMNA splicing GFP/RFP minigene ratio, 48 h. The procedure, abridged:
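S3 HeLa stable clones carrying a lamin A-EGFP splicing minigene plus DsRed2 were seeded at 600 cells/well in Opti-MEM with 2% FBS, pin-dosed and incubated 48 h at 37°C. Acumen cytometry (488 nm) gave the GFP/RFP total-intensity ratio.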
In general terms: Quantitative high-throughput screening tests each substance at several concentrations.

Setting [1] is: measured here: GFP splicing reporter channel.
[2] abbreviates: measured here: RFP viability control channel.

Molecules are shown by their SMILES. Several values for one entry are separate records, joined by “and”; a condition that tells them apart may be missing. Identical values can stand only once. The list shows a part of the results. The main result of the screen is listed elsewhere. These columns were measured beside it and carry no call. The list favours compounds with an active or inconclusive main result. Potencies come from curve fits of mixed quality, noted in brackets.

By AC50 is commonly meant the concentration at which the activity in the assay is half-maximal. For `C/C=C/C(=O)OCC(=O)Nc1cccc(F)c1`, the concentration at half-maximal activity (AC50) under setting [1] was 25.1 µM [falling, partial curve, poor fit].
Same read-out and setting: as for `CC(=O)N1CC[n+]2c(-c3ccc(Cl)cc3Cl)csc21`, the figure is 22.4 µM [rising, single point].
`Cc1ccc(S(=O)(=O)NC(=O)Nc2ccccc2)cc1`: the AC50 under setting [2] was 35.5 µM [falling, partial curve].
In the case of `Cc1ccc(-c2cc(C(F)(F)F)n3ncc(C(=O)N4CCCCC4c4cccnc4)c3n2)cc1` (stereo not drawn), the AC50 runs as follows: under setting [1], 0.891 µM [rising, partial curve, poor fit]; under setting [2], 0.00355 µM [rising, full curve, poor fit].
In the case of `CC(=O)c1ccc(N2CCN(S(=O)(=O)c3ccc4[nH]c5c(c4c3)CCCC5)CC2)cc1`, under setting [1], the AC50 was 0.398 µM [falling, single point].
Turning to `O=C1OCC2=C1C(c1ccc(F)cc1)c1cc3c(cc1N2)OCCO3` (stereo not drawn), the AC50 is 0.00316 µM [falling, full curve, poor fit] under setting [1] and 2.82 µM [falling, partial curve, poor fit] under setting [2].
For `CCOc1ccc(OCC)c(S(=O)(=O)NCCOC23CC4CC(CC(C4)C2)C3)c1`, the AC50 is 12.6 µM [rising, single point] under setting [1] and 17.8 µM [rising, partial curve] under setting [2].
As to `C=Cc1c(C)c2cc3[nH]c(cc4nc(cc5nc(cc1[nH]2)C(C)=C5CCC(=O)O)C(CCC(=O)O)=C4C)c(C)c3C=C`, the concentration at half-maximal activity (AC50) under setting [1] is 7.08 µM [rising, partial curve] and 11.2 µM [falling, partial curve]; the AC50 under setting [2] is 10 µM [falling, partial curve].
Turning to `O=C(NCc1cccc(F)c1)c1cccc(NC(=O)c2nsc3ccccc23)c1`, the AC50 under setting [1] is 0.891 µM [rising, full curve, poor fit] and the concentration at half-maximal activity (AC50) under setting [2] was 20 µM [rising, single point].
Consider `CCc1ccc(Nc2nc(N)nc(CSc3nc4ccccc4s3)n2)cc1`, for which the AC50 reads like this: under setting [1], 22.4 µM [falling, single point]; under setting [2], 14.1 µM [falling, single point].
Regarding `N#CC1=C(N)N(c2ccccc2)C(c2cccc([N+](=O)[O-])c2)C1(C#N)C#N` (stereo not drawn), the AC50 under setting [1] was 0.0794 µM [rising, full curve, poor fit].
Take `Nc1nc(Cl)nc2c1ncn2[C@@H]1O[C@@H](CO)[C@@H](O)[C@H]1O`: the AC50 was 12.6 µM [rising, partial curve] under setting [1] and 12.6 µM [rising, partial curve, poor fit] under setting [2].
For `Cc1cccc(-n2ncc3c(NC4CCCC4)ncnc32)c1`, the AC50 under setting [1] is 35.5 µM [falling, partial curve, poor fit].
Consider `O=C(COc1ccc2c(c1)OCO2)Nc1ccccc1C(F)(F)F`, for which the AC50 under setting [2] is 1.12 µM [falling, single point].
For the compound `CCC(C(=O)Nc1cc(-c2nc3cccnc3s2)ccc1C)c1ccccc1` (stereo not drawn), the AC50 is 22.4 µM [falling, partial curve] under setting [1] and 31.6 µM [falling, partial curve] under setting [2].
As for `COc1ccc(N2CCN(Cc3nc4ccccc4n3C)CC2)cc1`, the AC50 by setting is: under setting [1], 22.4 µM [rising, single point]; under setting [2], 22.4 µM [rising, single point].
As for `COc1ccc(N=C/C=C2\C=C(c3ccccc3)OC(C)(C)O2)cc1`, under setting [2], the AC50 was 17.8 µM [rising, partial curve].
Regarding `O=C(OCn1nnc2ccccc2c1=O)c1cn(-c2ccccc2)nc1-c1cccnc1`, the AC50 under setting [1] was 6.31 µM [rising, partial curve].
As for `Cc1cc(C)nc(SCC(=O)Nc2nc(-c3ccccc3)c(-c3ccccc3)o2)n1`, the AC50 under setting [2] was 35.5 µM [rising, single point].
As for `O=c1c(N2CCN(c3cccc(C(F)(F)F)c3)CC2)csc2ccc(Cl)cc12`, the AC50 was 35.5 µM [falling, single point] under setting [1] and 35.5 µM [falling, single point] under setting [2].
As for `COc1ccc(/C=N/OCC(=O)Nc2nc3ccccc3s2)cc1`, the AC50 under setting [1] was 0.0794 µM [rising, full curve, poor fit].
For `Cc1nn(C)c2c1c(-c1ccccc1)cc(=O)n2C(C)C(=O)NCc1ccc(F)cc1` (stereo not drawn), under setting [2], the AC50 is 0.00282 µM [falling, full curve, poor fit].
As for `COC(=O)c1sc(S(=O)(=O)Nc2ccc(Br)cc2)c(C(=O)OC)c1C`, the AC50 under setting [2] is 14.1 µM [rising, single point].
As for `Cc1nnsc1C(=O)N/N=C/c1ccc2ccccc2c1O`, under setting [2], the AC50 was 3.16 µM [rising, full curve].
As to `O=C(Cc1c(F)cccc1Cl)Nc1ccc(-n2cnnn2)cc1`, under setting [2], the AC50 is 0.158 µM [rising, full curve, poor fit].
`CCCCSc1nc(C)cc(SCC(=O)N/N=C/c2cccc(OC)c2O)n1`: the AC50 runs as follows: under setting [1], 7.94 µM [falling, partial curve]; under setting [2], 6.31 µM [falling, full curve].
Regarding `S=C(NCc1ccccc1Cl)NC1CCCC1`, under setting [1], the AC50 is 7.08 µM [rising, partial curve, poor fit].
With `COc1ccc(N2CCN(c3oc(-c4ccco4)nc3C#N)CC2)cc1`, the AC50 under setting [2] is 15.8 µM [rising, single point].
On the same count and under the same terms, as for `O=C(/C=C/c1ccc2ccccc2n1)N1CCN(c2ccccc2)CC1`, the figure is 35.5 µM [rising, single point].
On to `c1ccc(-c2nnc(N3CCN(c4ccccn4)CC3)c3ccccc23)cc1`, for which the AC50 under setting [2] was 14.1 µM [rising, single point].
Take `COc1ccc(N(C(=O)c2cccnc2)S(=O)(=O)c2cccs2)cc1`: the AC50 under setting [2] was 0.631 µM [rising, partial curve].
`CC(C)C(=O)NC(c1ccccc1)c1cc([N+](=O)[O-])c2cccnc2c1O` (stereo not drawn): the AC50 under setting [2] is 6.31 µM [rising, full curve].
As to `COC(=O)c1c(-c2ccc(Cl)cc2)noc1N1CCN(c2cccc(C(F)(F)F)c2)CC1`, the AC50 runs as follows: under setting [1], 2.82 µM [falling, full curve]; under setting [2], 4.47 µM [falling, partial curve].
Regarding `COc1ccc(CCN(C)C(=S)NC(=O)c2ccc(F)cc2Cl)cc1OC`, under setting [2], the AC50 is 0.158 µM [rising, full curve, poor fit].
Consider `Nc1c(Cl)ncnc1N/N=C/c1ccc2ccccc2n1`, for which the AC50 under setting [2] is 2.82 µM [rising, full curve].
On the same count and under the same terms, then `CCOC(=O)CC(NC(=O)N1CCC(CN2CCC(C)CC2)CC1)c1ccccc1` (stereo not drawn), with 0.708 µM [falling, full curve, poor fit]; and `COc1ccccc1-n1c(SCC(=O)N2CCc3ccccc32)nc2c(c1=O)SCC2`, with 11.2 µM [rising, partial curve].
Take `CC1(C)[C@@H]2CC[C@@]1(C)C(=O)C2`: the AC50 runs as follows: under setting [1], 0.00158 µM [falling, full curve, poor fit]; under setting [2], 10 µM [rising, single point].
On to `COc1ccc(OC)c(CN2CCN(C(=O)c3cccc4ccccc34)CC2)c1`, for which the AC50 under setting [2] is 11.2 µM [rising, single point].
Consider `COc1ccc(-c2cc(C(F)(F)F)nc(SCC(=O)Nc3cc(C)on3)n2)cc1`, for which, under setting [2], the AC50 is 3.98 µM [rising, full curve].
As for `O=C(/C=C/c1ccccc1)CC(O)(c1ccccc1)C(F)(F)F` (stereo not drawn), the AC50 is 25.1 µM [falling, single point] under setting [1] and 35.5 µM [falling, single point] under setting [2].
For the compound `CCCCN(C)C(=O)C1CCC(CNS(=O)(=O)c2ccc(Cl)cc2)CC1` (stereo not drawn), under setting [2], the AC50 was 31.6 µM [falling, partial curve].
Take `Cc1cc(=O)oc2cc(OC(=O)CCCCCN3C(=O)c4ccccc4C3=O)ccc12`: the AC50 under setting [2] was 3.16 µM [falling, full curve, poor fit].
`Cc1cc(Cl)nc(-c2ccccc2)n1`: the AC50 by setting is: under setting [1], 0.0891 µM [falling, full curve]; under setting [2], 0.0447 µM [falling, full curve].
On to `CN1CCN(C(c2ccccn2)c2cc(Cl)c3cccnc3c2O)CC1` (stereo not drawn), for which the AC50 under setting [2] was 10 µM [rising, partial curve].
Consider `O=C(N/N=C/c1cn(-c2ccccc2)nc1-c1ccccc1)c1ccco1`, for which the AC50 is 14.1 µM [rising, single point] under setting [1] and 12.6 µM [rising, partial curve] under setting [2].
As to `CCOc1cc(CNc2ccc3c(c2)OCCO3)cc(Br)c1OCC`, the AC50 under setting [1] was 4.47 µM [falling, full curve] and the AC50 under setting [2] was 5.01 µM [falling, full curve].
For `O=C(COC(=O)CCc1nc2ccccc2c(=O)[nH]1)NC1CCS(=O)(=O)C1` (stereo not drawn), under setting [1], the AC50 is 11.2 µM [falling, partial curve, poor fit].
For the compound `COc1ccc2c(c1OC)C(=O)OC2C1c2c(cc3c(c2OC)OCO3)CCN1C` (stereo not drawn), under setting [2], the AC50 was 35.5 µM [rising, single point] and 11.2 µM [rising, partial curve].
Consider `COc1ccc(N=c2scc(-c3ccc(OC)cc3)n2CCO)cc1`, for which the AC50 under setting [2] is 22.4 µM [rising, partial curve].
In the case of `Cc1ccc(S(=O)(=O)N[C@H](C(=O)OCC(=O)NC(=O)Nc2ccc3c(c2)OCCO3)C(C)C)cc1`, the AC50 is, setting by setting: under setting [1], 11.2 µM [rising, partial curve]; under setting [2], 12.6 µM [rising, partial curve].
As for `COC(=O)c1ccc(CSc2nc3c(cnn3-c3ccc(Cl)cc3)c(=O)[nH]2)o1`, the AC50 under setting [1] was 7.08 µM [falling, partial curve, poor fit].
As for `CCOC(=O)c1ccc2c(c1)nc(SCc1cn3ccsc3n1)n2CC`, the AC50 reads like this: under setting [1], 11.2 µM [rising, partial curve]; under setting [2], 12.6 µM [rising, partial curve].
In the case of `Cc1ccc(NC(=O)CN2C(=O)C3(SCC(=O)N3c3cccc(Cl)c3)c3ccccc32)cc1C` (stereo not drawn), the AC50 under setting [1] is 0.112 µM [falling, full curve, poor fit].
